Among the data in PMC10562560, “Molecular basis for cellular retinoic acid-binding protein 1 in modulating CaMKII activation” (Frontiers in Molecular Biosciences, 2023) are binding values, retold here.

Chains of the proteins cited; added tags and fusions are not shown. Residues count along the entry.
UniProt P62965, residues 2-137: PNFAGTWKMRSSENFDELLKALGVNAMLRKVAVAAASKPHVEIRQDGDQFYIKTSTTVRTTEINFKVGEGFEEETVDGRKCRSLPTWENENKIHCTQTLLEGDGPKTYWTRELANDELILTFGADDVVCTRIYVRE
UniProt P08413: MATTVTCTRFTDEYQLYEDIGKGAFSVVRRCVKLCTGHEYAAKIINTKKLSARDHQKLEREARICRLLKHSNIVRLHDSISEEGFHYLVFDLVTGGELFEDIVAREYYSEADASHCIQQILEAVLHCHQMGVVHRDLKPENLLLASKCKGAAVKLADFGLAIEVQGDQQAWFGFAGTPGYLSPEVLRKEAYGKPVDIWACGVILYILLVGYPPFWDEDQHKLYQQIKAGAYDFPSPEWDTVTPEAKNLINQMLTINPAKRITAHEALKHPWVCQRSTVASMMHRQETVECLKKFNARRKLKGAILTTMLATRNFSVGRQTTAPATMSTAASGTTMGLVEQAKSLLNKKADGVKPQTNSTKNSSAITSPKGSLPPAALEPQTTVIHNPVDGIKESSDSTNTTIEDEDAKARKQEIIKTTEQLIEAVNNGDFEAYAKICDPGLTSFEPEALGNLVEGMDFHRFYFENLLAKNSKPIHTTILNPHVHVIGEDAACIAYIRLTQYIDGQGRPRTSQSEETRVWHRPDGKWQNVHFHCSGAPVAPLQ

Results are given in words; binding and its absence hold for the method and conditions named. Binding seen in cells or lysates may run through a third protein. Some entries that bind do so weakly or less than the wild type.

The target in this assay is His-tagged wild-type (WT) CRABP1 (Mus musculus) (UniProt P62965). In words: pull-down; purified His-CRABP1 (WT or mutant, 5 uM) held on Ni-NTA resin as bait; 250 ug pre-cleared lysate of HEK293T cells expressing GFP-CaMKII (DMSO or ionomycin 10 uM, 10 min) as prey; 50 mM Tris pH 8.0, 150 mM NaCl, 0.2% NP-40, 20% glycerol, 200 mM imidazole, overnight at 4°C; Western blot with anti-GFP and anti-His; densitometry gives the CCI (n = 5); only the target purified. In general terms: Immunoblotting shows a protein as a band on a membrane.

For the substance “GFP-CaMKII beta, active (pCaMKII T287, from ionomycin-stimulated HEK293T cells) (from UniProt P08413 1-542) (enzyme)”, the binding result is given as “binds”.
